Reference: paper PMC9016969
No constants are given. Whether binding was seen depends on the method and setting. Binding seen in cells or lysates may run through a third protein. Some results given as binding are weak or reduced against the parent protein; the word gives no strength. For some assays here: Where a sequence is shown, tags or fusion partners need not be part of it. Blank lines part the entries; values can stand above or below the molecule they belong to.

Chains of the proteins cited; added tags and fusions are not shown.
UniProt Q8NFU7: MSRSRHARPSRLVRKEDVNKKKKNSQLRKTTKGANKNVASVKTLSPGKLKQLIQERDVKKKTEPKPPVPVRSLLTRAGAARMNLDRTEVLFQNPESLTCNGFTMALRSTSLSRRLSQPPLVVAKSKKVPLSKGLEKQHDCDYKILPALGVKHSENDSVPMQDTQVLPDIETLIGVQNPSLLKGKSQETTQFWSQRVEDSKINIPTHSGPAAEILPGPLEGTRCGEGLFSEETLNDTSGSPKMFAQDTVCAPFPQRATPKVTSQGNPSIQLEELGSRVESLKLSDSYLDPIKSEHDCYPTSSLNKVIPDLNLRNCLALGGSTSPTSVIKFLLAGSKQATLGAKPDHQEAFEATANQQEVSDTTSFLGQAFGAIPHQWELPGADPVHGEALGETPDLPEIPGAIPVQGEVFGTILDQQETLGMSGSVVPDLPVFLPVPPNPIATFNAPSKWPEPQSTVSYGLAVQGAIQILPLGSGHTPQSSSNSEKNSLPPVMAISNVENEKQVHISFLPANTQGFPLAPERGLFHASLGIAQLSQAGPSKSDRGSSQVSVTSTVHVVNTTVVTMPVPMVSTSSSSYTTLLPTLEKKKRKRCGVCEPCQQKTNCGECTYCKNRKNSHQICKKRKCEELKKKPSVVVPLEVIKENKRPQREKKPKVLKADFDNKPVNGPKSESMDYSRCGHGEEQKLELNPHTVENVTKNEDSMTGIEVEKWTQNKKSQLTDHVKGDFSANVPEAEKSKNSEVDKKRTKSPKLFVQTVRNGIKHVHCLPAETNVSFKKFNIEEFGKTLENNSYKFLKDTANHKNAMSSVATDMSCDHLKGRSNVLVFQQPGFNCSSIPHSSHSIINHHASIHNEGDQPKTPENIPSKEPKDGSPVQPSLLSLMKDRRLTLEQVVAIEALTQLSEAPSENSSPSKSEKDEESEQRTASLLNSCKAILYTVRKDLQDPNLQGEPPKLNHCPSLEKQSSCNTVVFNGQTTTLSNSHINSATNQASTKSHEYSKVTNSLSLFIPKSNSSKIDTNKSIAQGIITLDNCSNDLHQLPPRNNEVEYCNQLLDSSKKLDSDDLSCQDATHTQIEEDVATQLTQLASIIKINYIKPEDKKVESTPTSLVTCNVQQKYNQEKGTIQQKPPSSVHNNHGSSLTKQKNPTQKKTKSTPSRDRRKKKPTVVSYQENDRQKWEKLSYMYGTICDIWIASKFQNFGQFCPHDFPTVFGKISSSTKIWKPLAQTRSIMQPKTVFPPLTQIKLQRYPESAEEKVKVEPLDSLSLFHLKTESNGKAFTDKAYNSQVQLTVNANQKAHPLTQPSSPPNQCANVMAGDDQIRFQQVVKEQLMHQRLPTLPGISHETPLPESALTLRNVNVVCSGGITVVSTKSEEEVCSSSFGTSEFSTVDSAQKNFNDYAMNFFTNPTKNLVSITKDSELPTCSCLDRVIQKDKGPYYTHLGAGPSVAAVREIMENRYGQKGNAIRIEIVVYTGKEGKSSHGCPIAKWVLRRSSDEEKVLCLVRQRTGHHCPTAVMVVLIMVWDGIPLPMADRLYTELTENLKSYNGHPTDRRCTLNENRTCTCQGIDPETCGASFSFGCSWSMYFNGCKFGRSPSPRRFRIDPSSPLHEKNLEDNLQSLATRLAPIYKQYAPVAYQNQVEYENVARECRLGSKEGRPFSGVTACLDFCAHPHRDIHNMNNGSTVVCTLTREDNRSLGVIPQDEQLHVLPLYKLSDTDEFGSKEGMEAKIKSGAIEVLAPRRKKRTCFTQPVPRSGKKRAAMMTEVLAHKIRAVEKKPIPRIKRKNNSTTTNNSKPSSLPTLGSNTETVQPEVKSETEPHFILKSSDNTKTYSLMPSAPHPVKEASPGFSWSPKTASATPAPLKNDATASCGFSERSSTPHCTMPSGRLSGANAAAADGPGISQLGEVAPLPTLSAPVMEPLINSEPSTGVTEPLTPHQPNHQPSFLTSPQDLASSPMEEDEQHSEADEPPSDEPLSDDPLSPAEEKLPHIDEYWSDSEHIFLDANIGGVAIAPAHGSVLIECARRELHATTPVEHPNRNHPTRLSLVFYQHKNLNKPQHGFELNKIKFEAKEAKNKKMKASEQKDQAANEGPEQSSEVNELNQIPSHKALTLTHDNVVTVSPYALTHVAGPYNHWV

Assays:
[1] = molecular target: T1, FOXA1 (endogenous, MCF-7) (human (endogenous in MCF-7)) (UniProt P55317); assay: co-IP; endogenous IP: rabbit anti-FOXA1 antibody on protein G Dynabeads with MCF-7 nuclear extract, 2 h at 4 °C; normal IgG as negative control; western blot
T1 sequence: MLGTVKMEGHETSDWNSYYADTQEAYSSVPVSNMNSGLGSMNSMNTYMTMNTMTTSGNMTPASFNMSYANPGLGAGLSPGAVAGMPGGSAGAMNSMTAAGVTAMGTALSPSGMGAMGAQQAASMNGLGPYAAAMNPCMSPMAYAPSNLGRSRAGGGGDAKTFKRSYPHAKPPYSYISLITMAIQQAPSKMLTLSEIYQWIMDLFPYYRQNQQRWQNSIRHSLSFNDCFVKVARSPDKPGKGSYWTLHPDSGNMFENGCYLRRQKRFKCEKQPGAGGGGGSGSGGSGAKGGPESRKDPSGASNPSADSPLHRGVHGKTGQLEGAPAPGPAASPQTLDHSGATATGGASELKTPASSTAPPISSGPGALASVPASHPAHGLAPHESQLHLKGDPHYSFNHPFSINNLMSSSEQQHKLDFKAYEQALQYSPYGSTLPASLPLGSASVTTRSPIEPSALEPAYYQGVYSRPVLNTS

GST-TET1 (human) = GST-TET1 (human) (UniProt Q8NFU7); assay: pull-down; GST fusion proteins pre-bound to glutathione-Sepharose beads (50 mM Tris HCl pH 8.0, 150 mM NaCl, 5 mM EDTA, 1% Triton X-100, 1 mM DTT), incubated 1 h at 4 °C with whole cell lysate of transfected COS-1 cells; washed 3 x in KAc interaction buffer; immunoblot; only the target purified

- binding [1]: binds
Molecule: TET2 (endogenous, MCF-7) (from UniProt Q6N021-1 1-2002)

- binding (GST-TET1 (human)): binds
B1: FOXA1-V5 (protein, UniProt P55317-1 1-472)
chain: T1 sequence
